Results are given in words; binding and its absence hold for the method and conditions named. Binding seen in cells or lysates may run through a third protein. Here binding means that the protein was enriched with, or labelled near, the bait; the list need not be complete.
B1: Rab7L1 (protein, UniProt O14966 1-203)
chain: MGSRDHLFKVLVVGDAAVGKTSLVQRYSQDSFSKHYKSTVGVDFALKVLQWSDYEIVRLQLWDIAGQERFTSMTRLYYRDASACVIMFDVTNATTFSNSQRWKQDLDSKLTLPNGEPVPCLLLANKCDLSPWAVSRDQIDRFSKENGFTGWTETSVKENKNINEAMRVLIEKMMRNSTEDIMSLSTQGDYINLQTKSSSWSCC

Amino acid sequences for entries named in this document (tags omitted). A change or cut given only in a name is not applied to a line headed by its entry.
UniProt Q5S007: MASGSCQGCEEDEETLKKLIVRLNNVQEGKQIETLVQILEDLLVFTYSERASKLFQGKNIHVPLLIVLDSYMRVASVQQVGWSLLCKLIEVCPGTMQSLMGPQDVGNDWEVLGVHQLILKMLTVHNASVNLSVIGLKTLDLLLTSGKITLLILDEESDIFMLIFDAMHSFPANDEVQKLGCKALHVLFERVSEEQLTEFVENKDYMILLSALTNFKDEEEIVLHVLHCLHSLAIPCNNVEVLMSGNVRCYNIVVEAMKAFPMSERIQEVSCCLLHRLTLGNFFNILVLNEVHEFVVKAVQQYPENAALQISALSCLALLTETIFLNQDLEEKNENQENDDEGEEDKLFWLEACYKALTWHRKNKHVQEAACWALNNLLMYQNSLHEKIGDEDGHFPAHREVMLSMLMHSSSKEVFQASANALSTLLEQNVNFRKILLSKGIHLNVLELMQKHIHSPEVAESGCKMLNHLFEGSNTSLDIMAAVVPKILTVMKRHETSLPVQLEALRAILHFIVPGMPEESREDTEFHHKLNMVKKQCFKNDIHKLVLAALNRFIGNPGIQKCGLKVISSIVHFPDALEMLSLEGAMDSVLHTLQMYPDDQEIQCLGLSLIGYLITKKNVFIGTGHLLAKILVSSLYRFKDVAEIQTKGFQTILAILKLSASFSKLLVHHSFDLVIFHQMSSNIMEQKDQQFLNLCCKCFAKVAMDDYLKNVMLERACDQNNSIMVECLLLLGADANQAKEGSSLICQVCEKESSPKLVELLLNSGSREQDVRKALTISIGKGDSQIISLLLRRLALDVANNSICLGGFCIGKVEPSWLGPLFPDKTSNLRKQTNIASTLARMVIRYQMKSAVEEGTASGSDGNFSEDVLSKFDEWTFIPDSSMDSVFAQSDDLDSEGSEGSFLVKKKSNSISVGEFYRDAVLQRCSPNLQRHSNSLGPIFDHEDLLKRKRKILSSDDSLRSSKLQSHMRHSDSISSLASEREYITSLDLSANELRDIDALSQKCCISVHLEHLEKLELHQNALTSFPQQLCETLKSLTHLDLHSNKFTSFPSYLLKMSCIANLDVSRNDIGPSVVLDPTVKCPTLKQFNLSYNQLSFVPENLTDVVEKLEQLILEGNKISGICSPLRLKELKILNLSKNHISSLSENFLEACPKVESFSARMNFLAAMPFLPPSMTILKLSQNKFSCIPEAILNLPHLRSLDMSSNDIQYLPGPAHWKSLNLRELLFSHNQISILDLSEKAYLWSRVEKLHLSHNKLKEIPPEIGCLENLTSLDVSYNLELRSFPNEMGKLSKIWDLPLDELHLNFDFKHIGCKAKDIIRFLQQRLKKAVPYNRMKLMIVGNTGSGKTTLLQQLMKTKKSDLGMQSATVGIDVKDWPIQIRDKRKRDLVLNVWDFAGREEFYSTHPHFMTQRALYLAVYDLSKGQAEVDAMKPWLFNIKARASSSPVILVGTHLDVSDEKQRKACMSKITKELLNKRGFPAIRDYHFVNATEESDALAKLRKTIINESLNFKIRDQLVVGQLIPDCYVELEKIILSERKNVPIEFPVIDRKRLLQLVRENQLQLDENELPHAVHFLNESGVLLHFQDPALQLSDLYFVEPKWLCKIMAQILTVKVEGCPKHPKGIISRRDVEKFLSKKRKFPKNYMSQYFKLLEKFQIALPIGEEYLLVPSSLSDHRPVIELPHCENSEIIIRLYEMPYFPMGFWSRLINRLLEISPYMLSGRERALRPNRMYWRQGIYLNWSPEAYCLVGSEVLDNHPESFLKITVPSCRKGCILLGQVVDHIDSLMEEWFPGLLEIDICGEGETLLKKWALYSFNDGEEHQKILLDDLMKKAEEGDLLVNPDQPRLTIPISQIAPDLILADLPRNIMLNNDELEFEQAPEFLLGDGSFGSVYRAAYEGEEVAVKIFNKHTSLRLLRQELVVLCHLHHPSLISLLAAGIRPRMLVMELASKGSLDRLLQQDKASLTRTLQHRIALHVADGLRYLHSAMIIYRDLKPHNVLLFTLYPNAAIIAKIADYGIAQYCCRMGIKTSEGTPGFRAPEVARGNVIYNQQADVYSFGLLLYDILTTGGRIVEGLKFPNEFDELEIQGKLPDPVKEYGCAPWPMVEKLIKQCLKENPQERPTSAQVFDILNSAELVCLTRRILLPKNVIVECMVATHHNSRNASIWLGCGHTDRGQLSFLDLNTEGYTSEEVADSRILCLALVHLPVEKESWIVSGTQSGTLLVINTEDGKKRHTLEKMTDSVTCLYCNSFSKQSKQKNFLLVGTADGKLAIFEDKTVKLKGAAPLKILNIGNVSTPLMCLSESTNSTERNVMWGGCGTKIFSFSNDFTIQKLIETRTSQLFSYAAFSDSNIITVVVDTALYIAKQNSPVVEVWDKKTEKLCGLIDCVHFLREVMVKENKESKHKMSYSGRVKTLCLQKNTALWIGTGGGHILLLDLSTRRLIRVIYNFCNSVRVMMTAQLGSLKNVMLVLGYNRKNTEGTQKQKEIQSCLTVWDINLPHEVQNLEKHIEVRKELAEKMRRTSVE
UniProt P61006: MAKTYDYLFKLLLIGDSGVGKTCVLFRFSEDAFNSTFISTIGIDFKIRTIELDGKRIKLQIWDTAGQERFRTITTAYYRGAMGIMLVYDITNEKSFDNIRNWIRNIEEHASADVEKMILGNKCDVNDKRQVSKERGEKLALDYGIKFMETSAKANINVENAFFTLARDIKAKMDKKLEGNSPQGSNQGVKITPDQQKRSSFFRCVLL
UniProt Q15286: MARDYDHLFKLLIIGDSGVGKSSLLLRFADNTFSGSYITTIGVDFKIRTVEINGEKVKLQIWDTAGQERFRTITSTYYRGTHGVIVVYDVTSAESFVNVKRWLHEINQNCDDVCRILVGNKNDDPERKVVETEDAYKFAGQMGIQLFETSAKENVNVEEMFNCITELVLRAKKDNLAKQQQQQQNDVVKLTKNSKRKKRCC
UniProt P23258: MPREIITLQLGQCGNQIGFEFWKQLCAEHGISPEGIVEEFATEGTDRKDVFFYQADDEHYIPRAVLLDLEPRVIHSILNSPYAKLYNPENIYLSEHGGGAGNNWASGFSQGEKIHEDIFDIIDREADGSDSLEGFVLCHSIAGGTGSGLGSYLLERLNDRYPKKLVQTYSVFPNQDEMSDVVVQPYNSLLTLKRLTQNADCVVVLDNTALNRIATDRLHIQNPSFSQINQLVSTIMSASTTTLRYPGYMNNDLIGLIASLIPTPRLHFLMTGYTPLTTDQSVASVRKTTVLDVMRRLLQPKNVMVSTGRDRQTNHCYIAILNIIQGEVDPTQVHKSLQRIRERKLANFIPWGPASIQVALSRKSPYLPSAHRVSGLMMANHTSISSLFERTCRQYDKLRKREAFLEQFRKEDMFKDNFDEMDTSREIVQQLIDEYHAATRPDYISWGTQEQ

Key:
FLAG-APEX2-WT-LRRK2 = FLAG-APEX2-WT-LRRK2 (UniProt Q5S007); assay: proximity labelling; APEX2 fused N-terminally to LRRK2 in transfected HEK293T cells; 500 µM biotinyl tyramide 30 min, 1 mM H2O2 1 min; biotinylated proteins quantified by whole-cell proteomics (LC-MS/MS); cells with or without MLi2 (250 nM, 30 min); FLAG-APEX2 alone as control
FLAG-APEX2-G2019S-LRRK2 = FLAG-APEX2-G2019S-LRRK2 (UniProt Q5S007); assay: as above

Row | binding (FLAG-APEX2-WT-LRRK2) | binding (FLAG-APEX2-G2019S-LRRK2) | Molecule
1 | binds | – | Rab8a (from UniProt P61006 1-207)
2 | binds | binds | Rab35 (from UniProt Q15286 1-201)
3 | binds | binds | γ-tubulin (from UniProt P23258)
4 | binds | binds | B1

Source: article PMC12238589
